The campaign covered roughly 400,000 compounds. About 3,700 (0.93%) were called active. Inconclusive means that the source gave no clear call. Such entries were picked first, then a sample of the others. Calls follow the shape of the dose curve; as a rule, active = well fitted inhibition curve with a large enough effect; inconclusive = small, poorly fitted or top-dose-only effect, or another doubt; inactive = no such curve, though single readings can be large or run the other way. A potency beside an inconclusive call is a rough fit, not a confirmed value.
Target: Vitamin D3 receptor (Homo sapiens) (UniProt P11473)
Assay: Inhibitors of the vitamin D receptor (VDR): qHTS
Conditions: VDR-SRC2-3 peptide fluorescence polarization, 2 h; max response, negative = inhibition: stronger effect = lower value
In short: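 The screen uses fluorescence polarization to detect compounds that interfere with recruitment of the SRC2-3 coactivator peptide to VDR; plates are read after 2 h at room temperature.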
% is scaled to controls: 0 for no effect and ±100 for the full control effect; potency is read from the fitted curve at half-maximal effect.

Chains of the proteins cited; added tags and fusions are not shown.
UniProt P11473, whole entry, looked up: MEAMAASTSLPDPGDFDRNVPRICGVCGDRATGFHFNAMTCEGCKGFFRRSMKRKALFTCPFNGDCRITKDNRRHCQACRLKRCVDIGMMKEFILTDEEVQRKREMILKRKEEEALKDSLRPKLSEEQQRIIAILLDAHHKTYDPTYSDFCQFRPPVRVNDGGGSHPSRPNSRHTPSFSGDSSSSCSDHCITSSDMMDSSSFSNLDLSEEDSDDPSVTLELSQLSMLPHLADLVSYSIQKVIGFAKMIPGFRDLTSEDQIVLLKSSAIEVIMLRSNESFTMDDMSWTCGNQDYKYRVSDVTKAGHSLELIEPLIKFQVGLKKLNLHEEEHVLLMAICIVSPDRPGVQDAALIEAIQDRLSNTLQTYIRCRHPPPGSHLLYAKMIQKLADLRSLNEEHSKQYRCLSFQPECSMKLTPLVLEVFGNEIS

Potency, active:
CCOc1ccc(C(=O)CC(C(=O)O)N2CCCCC2)cc1 (configuration not stated) 39.8 µM, CC1CCCC2(C1)NC(=S)c1c(sc3c1CCCC3)N2 (configuration not stated) 39.8 µM, COC1=CC(=O)C(C2CC(=O)c3c(O)cc(O)cc3O2)=CC1=O (configuration not stated) 79.4 µM, Nc1cccc2c1C(=O)N(C(=O)/C=C/c1ccc(F)cc1)C2=O 28.2 µM

Potency, inconclusive:
CC(=O)Nc1ccc(-c2c(C)cc3oc(=O)cc(-c4ccccc4)c3c2C)cc1 25.1 µM [inhibitor, partial curve], CCCOc1ccc(C2C(C(=O)c3ccc(C)o3)=C(O)C(=O)N2Cc2ccco2)cc1OCC (configuration not stated) 50.1 µM [inhibitor, partial curve], CCCn1nc([N+](=O)[O-])c(C(C#N)c2nc3ccccc3s2)c(Cl)c1=O (configuration not stated) 35.5 µM [inhibitor, partial curve, poor fit], CCc1nn2c(=O)cc(COc3cccc(NC(=O)c4ccco4)c3)nc2s1 28.2 µM [inhibitor, single point], Cc1cc(=O)n2c(sc3ccccc32)c1C#N 12.6 µM [inhibitor, partial curve, poor fit], CCOC(=O)C1=C(C)N=c2s/c(=C\c3ccc(C(=O)O)cc3)c(=O)n2C1c1ccc(F)cc1 (configuration not stated) 35.5 µM [inhibitor, partial curve], COc1ccc(F)c(CN(C)CC2CCCN(CCc3ccc(F)cc3)C2)c1 (configuration not stated) 89.1 µM [inhibitor, single point], O=c1c(Cl)c(N2CCN(c3ccc(F)cc3)CC2)cnn1-c1nc2ccccc2s1 100 µM [inhibitor, single point], Oc1c(Br)cc(Br)c2cccnc12 79.4 µM [inhibitor, single point], Cc1cc(C)c2nc(/N=C(\N)NC(=O)c3ccccc3)nc(C)c2c1 70.8 µM [inhibitor, partial curve], CC(C)S(=O)(=O)c1oc(-c2cccs2)nc1S(=O)(=O)c1ccc(F)cc1 35.5 µM [inhibitor, single point], c1ccc(Cc2nc3ccccc3s2)cc1 89.1 µM [inhibitor, single point], O=c1c(-c2ccccc2)nc2cnc(N3CCNCC3)nc2n1-c1ccccc1 89.1 µM [inhibitor, single point], Cc1cccc(N=C2NC(=O)/C(=C/C=C/c3ccco3)S2)c1C 79.4 µM [inhibitor, partial curve], CN(C)/C=C1/C=C(c2ccccc2)OC1=O 39.8 µM [inhibitor, partial curve, poor fit], Cc1c(C(=O)N2CCOCC2)c(S(=O)(=O)Nc2ccc(C(C)C)cc2)c(C)n1C 22.4 µM [inhibitor, partial curve, poor fit], C=C1CC(COc2ccc3c(C)c(Cl)c(=O)oc3c2)(c2ccccc2)OC1=O (configuration not stated) 11.2 µM [inhibitor, partial curve, poor fit], COCCNC(=O)CSc1c2c(nc3ccc(Cl)cc13)CCCC2 79.4 µM [inhibitor, partial curve, poor fit], Fc1ccc(-c2ccnc(=S)[nH]2)cc1 56.2 µM [inhibitor, partial curve, poor fit], Cc1onc(-c2ccccc2)c1C(=O)NC(=S)Nc1sc2c(c1C#N)CCC(C)C2 (configuration not stated) 39.8 µM [inhibitor, partial curve, poor fit], CN1/C(=C\C(=S)Nc2ccccc2)C(C)(C)c2ccccc21 22.4 µM [inhibitor, partial curve, poor fit], COc1ccc(/C=N/NC(=O)CCc2n[nH]c(=O)[nH]c2=O)cc1OC 0.708 µM [inhibitor, full curve, poor fit], COc1ccc(C(=O)NCc2nnc(SCCOc3ccccc3)n2C)cc1 56.2 µM [inhibitor, partial curve, poor fit], O=c1c(-c2cccs2)nc2cnc(Oc3cccc(Cl)c3)nc2n1C1CC1 79.4 µM [inhibitor, partial curve, poor fit], O=C(NCc1cccnc1)c1cc2nc(-c3ccc4c(c3)OCO4)cc(C(F)(F)F)n2n1 25.1 µM [inhibitor, partial curve, poor fit]

Max response, negative = inhibition, inactive:
COC(=O)CCC(=O)Nc1ccc(C)cc1OC(=O)CCC(=O)OC 3.91%, Cc1cc(OC(=O)c2ccccc2Cl)c([N+](=O)[O-])c(=O)[nH]1 7.15%, Cc1cc(C)n(-c2ccc(C(=O)Nc3cc(S(=O)(=O)N(C)C)ccc3Cl)cc2)n1 -19.9%, CCOCCCNC(=O)c1c(NC(=O)c2cc(=O)c3ccccc3o2)sc2c1CCC2 3.32%, O=C(NCC(=O)N1CCN(Cc2ccccc2)CC1)c1cccs1 -1.93%, CCN(c1ccc(F)cc1)S(=O)(=O)c1ccc2[nH]cc(C(=O)NCCCN3CCOCC3)c(=O)c2c1 -5.88%, Cn1c(=O)n(C)c2cc(NC(=O)CSc3nnc(-c4ccccc4O)n3-c3ccccc3)ccc21 6.53%, COc1ccc(NC(=O)Cn2c(=O)n(Cc3ccccc3Cl)c(=O)c3cc(OC)c(OC)cc32)cc1OC -5.06%, C=CCSC(=C(C#N)C#N)c1cc2c([nH]1)CCCC2 -28.9%, COc1ccc(/C=C/C(=O)Nc2ccccc2)cc1OC 0.986%, COc1ccc2c(c1)O[C@H](c1ccc3c(c1)OCO3)[C@@H](OC(=O)NCCOc1ccccc1)C2=O -2.45%, O=C(c1ccco1)N1CCC[C@@]2(CCN(c3ccncc3)C2)C1 4.71%, CS(=O)(=O)N1CCC2(CC1)CN(c1cccc(-c3ccccc3)c1)C2 -25.9%

Source: PubChem BioAssay AID504847 (National Center for Advancing Translational Sciences (NCATS), 2011)
